Results are given in words; binding and its absence hold for the method and conditions named. Binding seen in cells or lysates may run through a third protein. Some entries that bind do so weakly or less than the wild type.
Target: T1, NAT10 (human (endogenous in A549)) (UniProt Q9H0A0)
T1 sequence: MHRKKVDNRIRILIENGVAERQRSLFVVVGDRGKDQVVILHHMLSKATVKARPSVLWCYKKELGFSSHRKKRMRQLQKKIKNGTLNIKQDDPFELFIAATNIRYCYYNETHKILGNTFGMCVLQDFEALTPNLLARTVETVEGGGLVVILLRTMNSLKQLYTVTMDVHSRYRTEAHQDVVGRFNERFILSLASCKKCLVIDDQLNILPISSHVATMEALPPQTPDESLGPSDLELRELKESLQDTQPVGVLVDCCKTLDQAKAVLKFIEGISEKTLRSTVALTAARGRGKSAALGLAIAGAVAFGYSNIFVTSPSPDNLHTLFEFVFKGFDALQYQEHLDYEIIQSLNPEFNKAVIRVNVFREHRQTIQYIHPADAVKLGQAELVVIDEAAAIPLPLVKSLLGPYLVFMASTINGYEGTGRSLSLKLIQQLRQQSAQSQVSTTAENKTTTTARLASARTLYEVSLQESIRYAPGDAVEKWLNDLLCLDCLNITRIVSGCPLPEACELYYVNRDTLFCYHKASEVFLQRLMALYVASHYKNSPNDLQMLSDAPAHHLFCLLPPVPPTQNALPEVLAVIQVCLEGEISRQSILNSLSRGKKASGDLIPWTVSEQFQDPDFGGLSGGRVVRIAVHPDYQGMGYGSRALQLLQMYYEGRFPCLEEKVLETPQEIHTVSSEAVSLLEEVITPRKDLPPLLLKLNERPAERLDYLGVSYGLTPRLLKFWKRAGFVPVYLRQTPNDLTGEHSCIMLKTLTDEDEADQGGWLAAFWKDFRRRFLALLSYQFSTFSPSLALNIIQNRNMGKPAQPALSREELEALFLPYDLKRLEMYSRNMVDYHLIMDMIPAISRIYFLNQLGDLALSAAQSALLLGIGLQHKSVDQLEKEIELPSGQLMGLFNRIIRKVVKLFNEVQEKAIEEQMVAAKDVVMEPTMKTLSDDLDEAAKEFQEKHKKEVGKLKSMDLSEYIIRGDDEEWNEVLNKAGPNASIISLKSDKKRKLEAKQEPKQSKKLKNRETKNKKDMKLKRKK
Test: co-IP; A549 cells lysed with RIPA-lysis buffer, treated with or without RNase A, immunoprecipitated with anti-NAT10 antibody, Western blotting

- binding: binds
B1: DGCR8 (protein, UniProt Q8WYQ5 1-773)
chain: METDESPSPLPCGPAGEAVMESRARPFQALPREQSPPPPLQTSSGAEVMDVGSGGDGQSELPAEDPFNFYGASLLSKGSFSKGRLLIDPNCSGHSPRTARHAPAVRKFSPDLKLLKDVKISVSFTESCRSKDRKVLYTGAERDVRAECGLLLSPVSGDVHACPFGGSVGDGVGIGGESADKKDEENELDQEKRVEYAVLDELEDFTDNLELDEEGAGGFTAKAIVQRDRVDEEALNFPYEDDFDNDVDALLEEGLCAPKKRRTEEKYGGDSDHPSDGETSVQPMMTKIKTVLKSRGRPPTEPLPDGWIMTFHNSGVPVYLHRESRVVTWSRPYFLGTGSIRKHDPPLSSIPCLHYKKMKDNEEREQSSDLTPSGDVSPVKPLSRSAELEFPLDEPDSMGADPGPPDEKDPLGAEAAPGALGQVKAKVEVCKDESVDLEEFRSYLEKRFDFEQVTVKKFRTWAERRQFNREMKRKQAESERPILPANQKLITLSVQDAPTKKEFVINPNGKSEVCILHEYMQRVLKVRPVYNFFECENPSEPFGASVTIDGVTYGSGTASSKKLAKNKAARATLEILIPDFVKQTSEEKPKDSEELEYFNHISIEDSRVYELTSKAGLLSPYQILHECLKRNHGMGDTSIKFEVVPGKNQKSEYVMACGKHTVRGWCKNKRVGKQLASQKILQLLHPHVKNWGSLLRMYGRESSKMVKQETSDKSVIELQQYAKKNKPNLHILSKLQEEMKRLAEEREETRKKPKMSIVASAQPGGEPLCTVDV

— paper PMC10838262
